Data published in patent CN114316048A.
No constants are given. Whether binding was seen depends on the method and setting. Some binding calls cover weakened binding; strength is not graded here. One block for each binder: values may come before it.

Columns and labels:
[1] = target: T1, 可溶性B7-H5蛋白标准品(R&D Systems) (human) (UniProt Q9H7M9); assay: sandwich ELISA, B7-H5-2E5 coated at 1 ug/ml as capture, soluble B7-H5 standard diluted from 2 ng/ml, OD450
T1 sequence (looked up): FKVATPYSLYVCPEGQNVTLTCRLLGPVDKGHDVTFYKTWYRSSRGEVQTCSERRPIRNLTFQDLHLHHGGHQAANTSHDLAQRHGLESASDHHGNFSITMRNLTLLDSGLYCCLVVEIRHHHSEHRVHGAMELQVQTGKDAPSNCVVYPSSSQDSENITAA

[2] = target: T1, 可溶性B7-H5蛋白标准品(R&D Systems) (human); assay: sandwich ELISA, biotinylated B7-H5-7B10 as detection of soluble B7-H5 standard captured by B7-H5-2E5, HRP/TMB, OD450

- binding [1]: binds
B1: 抗人B7-H5单克隆抗体B7-H5-2E5 (antibody, V domains shown)
VH: DVKLQESGPGLVKPSQSLSLTCTVTGYSIASDYTWNWIRQFPGNKLEWMGYIDYSGATFYNPSLKSRISIIRDTSKNQFFLQLNSVTTGDTATYYCTRGFYYYGSDYWGQGTTLTVSS
VL: DVLMTQTPLSLPVSLGDQASISCRSSQSIVHNNGNTYLEWYLQKPGQSPKLLIYKVSNRFSGVPDRFSGSGSGTDFTLKINRVEAEDLGVYYCFQGSHVPSTFGGGTKLEIK

- binding [2]: binds
B2: 抗人B7-H5单克隆抗体B7-H5-7B10 (antibody, V domains shown)
VH: EVQLKQSGPGLVAPSQSLSITCTVSGFSLTNHGVQWVRQSPGKGLEWLGVIWGDGNRNYHSALMSRLSINKDNSKSQVFLKLNRLQTDDTATYFCAKERRLGYYGEYDVMDYWGQGTSVTVSS
VL: DIVMTQSHKFMSTSVGDRVTITCKASQGVGTAVAWYQQKPGQSPKLLIYWASTRHTGVPDRFTGSGSGTDFTLTIGNVQSEDLADYFCQQYSSSPFTFGSGTKLEIK
